# Experimental data as given in PubChem BioAssay AID504467 (National Center for Advancing Translational Sciences (NCATS), 2011).
# In all, about 330,000 compounds went through this assay and about 7,700 (2.3%) were called active. The shares of active, inactive and inconclusive entries below differ from those in the screen. Calls come from the whole dose curve; as a rule, active = well fitted inhibition curve with a large enough effect; inconclusive = small, poorly fitted or top-dose-only effect, or effect the other way; inactive = flat fitted curve, though single readings scatter. Potencies beside an inconclusive call are fits to weak or partial responses and may not hold up.
# Assay: qHTS screen for small molecules that inhibit ELG1-dependent DNA repair in human embryonic kidney (HEK293T) cells expressing luciferase-tagged ELG1; note: nearly all actives have a fitted effect of over 55% in size
# Conditions: HEK293T ELG1-luciferase reporter, luminescence, 16 h, DNA damage induced by 5-fluorouridine; series mostly up to 46.1 µM
# Summary of the method: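 Luminescence from the luciferase reporter, measured 30 min after ONE-Glo reagent at room temperature, was the read-out. Beforehand, 2,000 cells per well were exposed for 16 hr at 37 °C to 5-fluorouridine together with compound or vehicle.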
# Potency is the fitted concentration of half-maximal effect.
row,Compound,Potency
1,CCn1cc(C(=O)NCCCN2CCN(C)CC2)c(=O)c2cc(S(=O)(=O)N3CCc4ccccc4C3)ccc21,"inconclusive: 29.1 µM [inhibitor, single point]"
2,O=C(O)c1cccc2c1C(=O)N(c1ccccc1)C2,"inconclusive: 25.9 µM [activator, partial curve, poor fit]"
3,Cc1ccc2nc(NC(=O)CCNS(=O)(=O)c3cccs3)sc2c1,"inconclusive: 14.6 µM [inhibitor, partial curve, poor fit]"
4,COc1ccc(NC(=O)Nc2ccc3c(c2)N(C)C(=O)CS3)cc1Cl,"inconclusive: 8.2 µM [inhibitor, partial curve, poor fit]"
5,CC(c1c(O)c2ccccc2[nH]c1=O)C1(C)CCC(O)C(C)(C)O1 (stereo unspecified),inactive
6,COC(=O)Nc1ccc(Cn2cc(C(F)(F)F)ccc2=O)cc1,inactive
7,CCn1c(=O)c(C(=O)Nc2cnccn2)c(O)c2ccccc21,inactive
8,O=C(c1ccco1)N1CCN(CCCCOc2ccc(F)cc2)CC1,inactive
9,CCN(c1ccc(NC(=O)COC(=O)c2cccs2)cc1)C(C)C,"inconclusive: 16.4 µM [activator, partial curve, poor fit]"
10,COc1ccc(CC(=O)NNC(=O)COc2ccc(Cl)cc2C)cc1S(=O)(=O)N1CCOCC1,"inconclusive: 13 µM [inhibitor, partial curve, poor fit]"
11,COC(C(=O)N/N=C(\C)c1ccc(C)cc1)c1ccccc1 (stereo unspecified),"inconclusive: 10 µM [activator, partial curve, poor fit]"
12,COc1cccc(OCc2cc(C(=O)N3CCN(c4ccccc4O)CC3)no2)c1,"inconclusive: 11.6 µM [activator, partial curve]"
13,Cc1ccc(S(=O)(=O)N2CCCCC2)cc1C(=O)N1C(C)CCCC1C (stereo unspecified),"inconclusive: 32.6 µM [inhibitor, single point]"
14,CN1CCN(CCCNC(=O)c2ccc(Cn3c(=S)[nH]c4ccc(Br)cc4c3=O)cc2)CC1,"inconclusive: 9.2 µM [activator, partial curve, poor fit]"
15,O=C(CCNC(=O)c1ccccc1Cl)Nc1nc2ccccc2[nH]1,inactive
16,O=C(/C=C/c1cccs1)c1ccc(NC(=O)c2cccc(Br)c2)cc1,"inconclusive: 8.2 µM [activator, partial curve, poor fit]"
17,CCOC(=O)c1ccc(P(=O)(c2ccccc2)c2ccccc2)cc1,"inconclusive: 6.31 µM [activator, single point]"
18,COc1cccc(CNc2ccc(F)c([N+](=O)[O-])c2)c1O,inactive
19,Cc1ccc(C(=O)O/N=C2\CCSc3ccc(C)cc32)cc1,"inconclusive: 29.1 µM [activator, single point]"
20,COc1ccccc1N1CCN(C(=O)c2sc3nc(-c4ccccc4)cn3c2C)CC1,"inconclusive: 29.1 µM [inhibitor, single point]"
21,Cc1cc(N2CCOCC2)nc2ccc(NC(=S)N3CCN(Cc4ccccc4)CC3)cc12,"inconclusive: 29.1 µM [inhibitor, single point]"
22,CCOC(=O)C1=C(O)C(=O)N(CCCn2ccnc2)C1c1ccc(OC)cc1 (stereo unspecified),inactive
23,COC(=O)C1=C(Nc2ccc(OC)cc2)C=C(C)C(C(=O)OC)C1c1ccc(C)cc1 (stereo unspecified),"inconclusive: 16.4 µM [inhibitor, single point]"
24,O=C(CSc1nc(=O)n(CCN2CCOCC2)c2c1CCC2)Nc1ccc(OC(F)(F)F)cc1,"inconclusive: 23.1 µM [inhibitor, partial curve, poor fit]"

row,Compound,Potency
1,Cc1cccc(CS(=O)(=O)Cc2ccc(C(=O)NCc3ccccc3)o2)c1,"inconclusive: 0.0326 µM [inhibitor, full curve, poor fit]"
2,Cc1cc(C)c(C(=O)N2CCCC(CNS(=O)(=O)N(C)C)C2)o1 (stereo unspecified),"inconclusive: 29.1 µM [activator, single point]"
3,CCCN1C(=O)SC(CC(=O)Nc2ccccc2)C1=O (stereo unspecified),inactive
4,CN(C)CCOCCOc1ccc(Cl)cc1C(C)(C)C,inactive
5,Cn1c(=O)c2c(-c3ccccc3)n(Cc3cccnc3)cc2n(C)c1=O,"inconclusive: 29.1 µM [activator, single point]"
6,CCC1=NN(C(=O)c2cccc(Br)c2)C(O)(c2ccc(Br)cc2)C1 (stereo unspecified),"inconclusive: 18.4 µM [inhibitor, single point]"
7,CCOc1cccc(/C=C/c2ccc3cccc(O)c3n2)c1O,"inconclusive: 13 µM [activator, partial curve]"
8,O=C(COC(=O)C1(c2ccc(Cl)cc2)CCCC1)NC1CCS(=O)(=O)C1 (stereo unspecified),inactive
9,CC1CCCCN1C(=O)c1ccc(NC(=O)c2ccccc2Cl)cc1 (stereo unspecified),inactive
10,COc1ccc(CN(CC(=O)NCC2CCCO2)C(=O)CNS(=O)(=O)c2ccccc2)cc1 (stereo unspecified),inactive
11,CC1CCN(CCCNC(=O)CN2C(=O)CSc3ccc(S(=O)(=O)N4CCC(C)CC4)cc32)CC1,"inconclusive: 20.6 µM [activator, single point]"
12,O=C(CSc1ccc(-c2ccccn2)nn1)c1ccccc1,"inconclusive: 23.1 µM [activator, partial curve]"
13,CCN1CCc2nc(NC(=O)CC(c3ccccc3)c3ccccc3)sc2C1,"inconclusive: 23.1 µM [activator, partial curve, poor fit]"
14,O=C(NCCCN1CCOCC1)c1cc(S(=O)(=O)N2CCOCC2)ccc1Cl,inactive
15,O=C1NC2(CCCCC2)C(=O)N1/N=C/c1ccccc1Br,"inconclusive: 20.6 µM [activator, partial curve]"
16,C=CCn1c(NCc2ccccc2)nc2ccccc21,"inconclusive: 29.1 µM [activator, single point]"
17,Cc1ccc(/C=N/NC(=O)c2cc(-c3ccccc3)nc3ccccc23)o1,inactive
18,COc1ccc(Cn2cc(C(=O)c3ccccc3)c(=O)c3cc(OC)ccc32)cc1,"inconclusive: 18.4 µM [inhibitor, single point]"
19,CCN(CC(=O)Nc1c(F)cccc1F)C(=O)c1ccc2ncsc2c1,inactive
20,O=C(NC1CCCCC1)C1CCCN(S(=O)(=O)c2cccc3cccnc23)C1 (stereo unspecified),"inconclusive: 6.51 µM [inhibitor, full curve, poor fit]"
21,CC(C)CNS(=O)(=O)c1ccc(S(=O)(=O)N2CCN(C3CCCC3)CC2)cc1,inactive
22,O=C1C=C(N2CCOCC2)c2ccccc2C1=O,"inconclusive: 6.31 µM [inhibitor, partial curve, poor fit]"
23,CCN(CC)CCCN1C(=O)C(O)=C(C(=O)c2ccc(C)o2)C1c1ccc(C)o1 (stereo unspecified),"inconclusive: 20.6 µM [activator, partial curve, poor fit]"
24,Cc1ccc(CNc2nc3ccccc3n3nnnc23)cc1,"inconclusive: 23.1 µM [activator, partial curve, poor fit]"

row,Compound,Potency
1,Cc1cccc(N(C(=O)CNC(=O)c2ccco2)C(C(=O)NC2CCCCC2)c2cccnc2)c1 (stereo unspecified),inactive
2,C/C(=N\NC(=S)NC1CCCCC1)c1ccccc1,"inconclusive: 29.1 µM [activator, single point]"
3,NS(=O)(=O)c1cc(C(=O)Nc2ccc3c(c2)OCCCO3)ccc1Cl,"inconclusive: 18.3 µM [activator, partial curve]"
4,O=C(N/N=C/c1c[nH]c2ccccc12)c1ccncc1,inactive
5,CCCCOC(=O)Nc1ccccc1C(N)=O,"inconclusive: 15.8 µM [activator, single point]"
6,Cc1occc1C(=O)NNC(=O)c1ccccc1Br,"inconclusive: 9.2 µM [activator, partial curve, poor fit]"
7,O=C(CN1CCN(Cc2ccccc2)CC1)Nc1cccc(S(=O)(=O)N2CCCCCC2)c1,inactive
8,CCNCc1cc([N+](=O)[O-])ccc1OCC,inactive
9,Cc1ccc(Cn2c(O)c(N=NC(=S)Nc3ccccc3F)c3ccccc32)cc1,active: 5.17 µM
10,CC1CCCC(NC(=O)c2cccc(S(=O)(=O)N3CCN(c4ccccc4)CC3)c2)C1C (stereo unspecified),"inconclusive: 18.3 µM [inhibitor, single point]"
11,S=C(Nc1ccccc1)N1CCOCC1,inactive
12,COc1ccccc1CN1CCCCCC1,inactive
13,Cc1ccccc1C1c2[nH]c3ccccc3c2C[C@H]2C(=O)N(C3CC3)CC(=O)N12 (stereo partly specified),inactive
14,CCOC(=O)c1cc(=O)n2nc(-c3ccc(C)cc3)nc2s1,inactive
15,COc1cc(NC(=O)Cn2c(=O)n(-c3cccc(C)c3)c(=O)c3c(C)c(C)sc32)cc(OC)c1,inactive
16,C#Cc1ccc([C@H]2C=C(C(=O)N3CCN(Cc4ccc5c(c4)OCO5)CC3)O[C@@H](OCc3ccc(CO)cc3)C2)cc1,active: 1.64 µM
17,Cc1cc(C)c(NC(=O)C(C)Sc2nc3ccc(N4C(=O)c5ccccc5C4=O)cc3s2)c(C)c1 (stereo unspecified),inactive
18,COC(=O)c1ccn(CSc2cc(Cl)ccc2Cl)n1,inactive
19,COc1cccc(N2CC(O)Cn3c2nc2c3c(=O)n(CCCc3ccccc3)c(=O)n2C)c1 (stereo unspecified),active: 23.1 µM
20,COc1ccc2c(c1OC)C(=O)N(c1ccc(C)cc1)C2=O,"inconclusive: 18.3 µM [activator, partial curve]"
21,COc1ccc(OC)c(-c2cnc(OC(C)(C)C)nc2OC(C)(C)C)c1,inactive
22,C=CC[n+]1c(-c2ccc(C)cc2)csc1Nc1ccc(NC(C)=O)cc1,"inconclusive: 3.66 µM [inhibitor, partial curve, poor fit]"
23,CCC(=O)N1CCN(c2ccccc2NC(=S)NC(=O)c2cccc([N+](=O)[O-])c2)CC1,"inconclusive: 8.2 µM [inhibitor, partial curve]"

# In another format: five of the compounds above.
row | Compound | Potency
7 | O=C(CN1CCN(Cc2ccccc2)CC1)Nc1cccc(S(=O)(=O)N2CCCCCC2)c1 | inactive
8 | CCNCc1cc([N+](=O)[O-])ccc1OCC | inactive
9 | Cc1ccc(Cn2c(O)c(N=NC(=S)Nc3ccccc3F)c3ccccc32)cc1 | active: 5.17 µM
10 | CC1CCCC(NC(=O)c2cccc(S(=O)(=O)N3CCN(c4ccccc4)CC3)c2)C1C (stereo unspecified) | inconclusive: 18.3 µM [inhibitor, single point]
11 | S=C(Nc1ccccc1)N1CCOCC1 | inactive
